Experimental findings from paper PMC7758050 are described below.

Sequences of proteins named here, by UniProt entry; tags and fusion partners are left off.
UniProt Q9UM11: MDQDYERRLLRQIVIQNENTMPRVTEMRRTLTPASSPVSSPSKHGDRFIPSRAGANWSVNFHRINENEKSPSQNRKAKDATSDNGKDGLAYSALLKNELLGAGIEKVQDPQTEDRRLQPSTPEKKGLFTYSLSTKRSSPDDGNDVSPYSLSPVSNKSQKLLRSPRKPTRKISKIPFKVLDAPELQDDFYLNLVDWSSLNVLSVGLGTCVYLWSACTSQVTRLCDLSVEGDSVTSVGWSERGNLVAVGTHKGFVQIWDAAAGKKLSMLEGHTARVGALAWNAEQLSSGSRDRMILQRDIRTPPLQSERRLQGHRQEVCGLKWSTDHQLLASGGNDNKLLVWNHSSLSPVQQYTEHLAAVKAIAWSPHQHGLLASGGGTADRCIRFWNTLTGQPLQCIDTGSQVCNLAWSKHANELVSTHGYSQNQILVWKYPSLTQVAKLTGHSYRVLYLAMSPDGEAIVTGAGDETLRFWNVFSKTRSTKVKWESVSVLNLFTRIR
UniProt Q9HAW4: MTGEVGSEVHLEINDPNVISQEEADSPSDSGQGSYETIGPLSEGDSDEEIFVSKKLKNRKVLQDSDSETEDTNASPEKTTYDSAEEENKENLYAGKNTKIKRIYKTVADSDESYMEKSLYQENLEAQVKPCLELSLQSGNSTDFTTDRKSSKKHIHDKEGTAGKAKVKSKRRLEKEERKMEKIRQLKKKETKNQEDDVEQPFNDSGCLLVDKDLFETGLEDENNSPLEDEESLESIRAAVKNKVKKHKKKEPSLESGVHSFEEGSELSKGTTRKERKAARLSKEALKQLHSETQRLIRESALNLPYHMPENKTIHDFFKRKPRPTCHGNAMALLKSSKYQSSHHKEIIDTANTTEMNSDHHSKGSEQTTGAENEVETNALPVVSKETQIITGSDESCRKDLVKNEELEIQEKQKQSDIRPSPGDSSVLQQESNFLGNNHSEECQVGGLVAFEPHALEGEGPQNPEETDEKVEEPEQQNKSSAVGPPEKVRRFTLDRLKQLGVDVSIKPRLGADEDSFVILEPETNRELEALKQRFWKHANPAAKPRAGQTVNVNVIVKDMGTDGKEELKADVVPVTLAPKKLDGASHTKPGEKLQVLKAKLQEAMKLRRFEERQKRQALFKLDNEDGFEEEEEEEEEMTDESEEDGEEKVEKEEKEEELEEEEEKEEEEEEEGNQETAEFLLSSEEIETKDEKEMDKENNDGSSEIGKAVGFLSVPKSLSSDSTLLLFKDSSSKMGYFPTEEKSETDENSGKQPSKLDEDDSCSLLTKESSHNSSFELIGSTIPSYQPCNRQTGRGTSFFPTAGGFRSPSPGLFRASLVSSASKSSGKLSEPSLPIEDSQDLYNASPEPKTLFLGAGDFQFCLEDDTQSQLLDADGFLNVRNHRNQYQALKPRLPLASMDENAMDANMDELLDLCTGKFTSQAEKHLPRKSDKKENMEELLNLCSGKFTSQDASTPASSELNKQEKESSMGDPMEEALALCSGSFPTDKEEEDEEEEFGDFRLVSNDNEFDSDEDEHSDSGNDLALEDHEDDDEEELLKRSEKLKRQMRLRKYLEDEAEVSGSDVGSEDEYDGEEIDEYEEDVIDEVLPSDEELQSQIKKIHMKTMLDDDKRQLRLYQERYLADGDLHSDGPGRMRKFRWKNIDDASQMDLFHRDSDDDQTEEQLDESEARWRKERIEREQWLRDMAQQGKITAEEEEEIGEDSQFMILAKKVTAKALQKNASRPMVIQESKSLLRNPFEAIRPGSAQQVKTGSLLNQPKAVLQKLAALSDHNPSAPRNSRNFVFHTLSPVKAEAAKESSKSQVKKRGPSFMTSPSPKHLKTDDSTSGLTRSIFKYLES
UniProt P52732: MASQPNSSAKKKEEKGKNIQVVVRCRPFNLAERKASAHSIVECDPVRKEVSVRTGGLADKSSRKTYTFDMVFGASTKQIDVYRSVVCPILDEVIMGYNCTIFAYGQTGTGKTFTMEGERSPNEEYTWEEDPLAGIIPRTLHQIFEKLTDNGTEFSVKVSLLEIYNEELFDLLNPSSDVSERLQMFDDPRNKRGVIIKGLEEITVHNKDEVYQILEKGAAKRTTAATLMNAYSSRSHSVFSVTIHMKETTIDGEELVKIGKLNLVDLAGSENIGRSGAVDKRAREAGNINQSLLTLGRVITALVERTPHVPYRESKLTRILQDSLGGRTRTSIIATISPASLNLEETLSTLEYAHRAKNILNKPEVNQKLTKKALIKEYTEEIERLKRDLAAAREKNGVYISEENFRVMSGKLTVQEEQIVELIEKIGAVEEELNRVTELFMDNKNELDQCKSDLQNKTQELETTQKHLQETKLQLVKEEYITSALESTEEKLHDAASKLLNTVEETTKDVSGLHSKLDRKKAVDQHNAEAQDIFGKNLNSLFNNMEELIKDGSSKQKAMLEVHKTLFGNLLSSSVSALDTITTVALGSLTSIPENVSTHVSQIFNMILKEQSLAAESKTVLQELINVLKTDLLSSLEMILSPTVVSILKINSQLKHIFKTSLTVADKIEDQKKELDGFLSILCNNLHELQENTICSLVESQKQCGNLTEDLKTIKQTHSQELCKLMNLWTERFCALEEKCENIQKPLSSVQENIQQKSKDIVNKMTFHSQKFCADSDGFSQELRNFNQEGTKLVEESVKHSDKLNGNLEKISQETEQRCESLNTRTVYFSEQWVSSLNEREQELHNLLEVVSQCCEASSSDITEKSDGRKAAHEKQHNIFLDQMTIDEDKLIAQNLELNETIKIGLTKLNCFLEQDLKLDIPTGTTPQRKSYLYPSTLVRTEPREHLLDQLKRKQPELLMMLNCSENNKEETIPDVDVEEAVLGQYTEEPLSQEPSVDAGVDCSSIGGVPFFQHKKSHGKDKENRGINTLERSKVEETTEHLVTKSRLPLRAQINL
UniProt P31350: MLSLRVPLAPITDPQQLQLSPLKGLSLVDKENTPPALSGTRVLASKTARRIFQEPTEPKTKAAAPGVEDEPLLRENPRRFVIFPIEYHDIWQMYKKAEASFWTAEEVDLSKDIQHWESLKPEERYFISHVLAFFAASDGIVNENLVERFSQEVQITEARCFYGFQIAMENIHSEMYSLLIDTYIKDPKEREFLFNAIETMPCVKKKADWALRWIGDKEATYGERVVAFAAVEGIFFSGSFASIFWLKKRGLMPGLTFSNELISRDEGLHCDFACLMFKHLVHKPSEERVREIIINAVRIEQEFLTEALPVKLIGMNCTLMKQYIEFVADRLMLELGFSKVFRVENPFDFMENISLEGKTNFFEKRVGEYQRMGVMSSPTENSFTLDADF

This assay addresses FLAG-Cdh1 (UniProt Q9UM11). The experiment in a line: affinity purification with mass spectrometry; FLAG-Cdh1 or empty vector transiently expressed 24 h in asynchronous HEK-293T; MG-132 10 uM 4 h before lysis; NETN lysis; anti-FLAG M2 agarose 6 h at 4°C; glycine elution; tryptic digest, LC-MS/MS.

These are yes or no findings as the source states them, for the method shown. Binding seen in cells or lysates may run through a third protein. Here binding means that the protein was enriched with, or labelled near, the bait; the list need not be complete.

Take Claspin (from UniProt Q9HAW4 1-1339): the binding result is given as “binds”.
As to Kif11 (from UniProt P52732 1-1056), the binding result is reported as “binds”.
The value for Rrm2 (from UniProt P31350 1-389) was “binds”.
